According to PMC12309053:

T1: SRSF7-GFP fusion product (Serine/arginine-rich splicing factor 7, GFP-tagged at the C-terminus, from a BAC) (human) (UniProt Q16629)
T1 sequence: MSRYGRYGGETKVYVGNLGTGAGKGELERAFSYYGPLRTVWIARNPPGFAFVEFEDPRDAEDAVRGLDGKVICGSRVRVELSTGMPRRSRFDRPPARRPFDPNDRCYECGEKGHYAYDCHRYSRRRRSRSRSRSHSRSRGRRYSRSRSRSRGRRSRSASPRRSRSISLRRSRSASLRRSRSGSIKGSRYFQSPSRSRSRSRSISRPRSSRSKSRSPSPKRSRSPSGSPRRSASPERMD

T2: SRSF7-GFP fusion product (Serine/arginine-rich splicing factor 7, GFP-tagged at the C-terminus, from a BAC) (human), Q16629
T2 chain: T1 sequence

B1: CRNKL1 (protein, UniProt Q9BZJ0 1-848)
chain: MTATVENLTFQKDTLGNAVDKNTSRLELRSYSLAGRHGSTEPLVLAWSSQFRRLTWGCALDALHRSPCVAASQHGVTHLIRSSRTPHSTRCRKEDAQPGHHGNGAASVTAQARGQRSVLQVPLPVPRSCLFSESFVVSVSSQSRFLASVPGTGVQRSTAADMAASTAAGKQRIPKVAKVKNKAPAEVQITAEQLLREAKERELELLPPPPQQKITDEEELNDYKLRKRKTFEDNIRKNRTVISNWIKYAQWEESLKEIQRARSIYERALDVDYRNITLWLKYAEMEMKNRQVNHARNIWDRAITTLPRVNQFWYKYTYMEEMLGNVAGARQVFERWMEWQPEEQAWHSYINFELRYKEVDRARTIYERFVLVHPDVKNWIKYARFEEKHAYFAHARKVYERAVEFFGDEHMDEHLYVAFAKFEENQKEFERVRVIYKYALDRISKQDAQELFKNYTIFEKKFGDRRGIEDIIVSKRRFQYEEEVKANPHNYDAWFDYLRLVESDAEAEAVREVYERAIANVPPIQEKRHWKRYIYLWINYALYEELEAKDPERTRQVYQASLELIPHKKFTFAKMWILYAQFEIRQKNLSLARRALGTSIGKCPKNKLFKVYIELELQLREFDRCRKLYEKFLEFGPENCTSWIKFAELETILGDIDRARAIYELAISQPRLDMPEVLWKSYIDFEIEQEETERTRNLYRRLLQRTQHVKVWISFAQFELSSGKEGSLTKCRQIYEEANKTMRNCEEKEERLMLLESWRSFEEEFGTASDKERVDKLMPEKVKKRRKVQTDDGSDAGWEEYFDYIFPEDAANQPNLKLLAMAKLWKKQQQEKEDAEHHPDEDVDESES
B2: TRA2B (protein, UniProt P62995 1-288)
chain: MSDSGEQNYGERESRSASRSGSAHGSGKSARHTPARSRSKEDSRRSRSKSRSRSESRSRSRRSSRRHYTRSRSRSRSHRRSRSRSYSRDYRRRHSHSHSPMSTRRRHVGNRANPDPNCCLGVFGLSLYTTERDLREVFSKYGPIADVSIVYDQQSRRSRGFAFVYFENVDDAKEAKERANGMELDGRRIRVDFSITKRPHTPTPGIYMGRPTYGSSRRRDYYDRGYDRGYDDRDYYSRSYRGGGGGGGGWRAAQDRDQIYRRRSPSPYYSRGGYRSRSRSRSYSPRRY
modifications: phosphorylated
B3: phosphorylated SRSF11 (protein, UniProt Q05519 1-484)
chain: MSNTTVVPSTAGPGPSGGPGGGGGGGGGGGGTEVIQVTNVSPSASSEQMRTLFGFLGKIDELRLFPPDDSPLPVSSRVCFVKFHDPDSAVVAQHLTNTVFVDRALIVVPYAEGVIPDEAKALSLLAPANAVAGLLPGGGLLPTPNPLTQIGAVPLAALGAPTLDPALAALGLPGANLNSQSLAADQLLKLMSTVDPKLNHVAAGLVSPSLKSDTSSKEIEEAMKRVREAQSLISAAIEPDKKEEKRRHSRSRSRSRRRRTPSSSRHRRSRSRSRRRSHSKSRSRRRSKSPRRRRSHSRERGRRSRSTSKTRDKKKEDKEKKRSKTPPKSYSTARRSRSASRERRRRRSRSGTRSPKKPRSPKRKLSRSPSPRRHKKEKKKDKDKERSRDERERSTSKKKKSKDKEKDRERKSESDKDVKQVTRDYDEEEQGYDSEKEKKEEKKPIETGSPKTKECSVEKGTGDSLRESKVNGDDHHEEDMDMSD
modifications: phosphorylated
B4: SRSF2 (protein, UniProt Q01130 1-221)
chain: MSYGRPPPDVEGMTSLKVDNLTYRTSPDTLRRVFEKYGRVGDVYIPRDRYTKESRGFAFVRFHDKRDAEDAMDAMDGAVLDGRELRVQMARYGRPPDSHHSRRGPPPRRYGGGGYGRRSRSPRRRRRSRSRSRSRSRSRSRSRYSRSKSRSRTRSRSRSTSKSRSARRSKSKSSSVSRSRSRSRSRSRSRSPPPVSKRESKSRSRSKSPPKSPEEEGAVSS
B5: SRRM1 (protein, UniProt Q8IYB3 1-904)
chain: MDAGFFRGTSAEQDNRFSNKQKKLLKQLKFAECLEKKVDMSKVNLEVIKPWITKRVTEILGFEDDVVIEFIFNQLEVKNPDSKMMQINLTGFLNGKNAREFMGELWPLLLSAQENIAGIPSAFLELKKEEIKQRQIEQEKLASMKKQDEDKDKRDKEEKESSREKRERSRSPRRRKSRSPSPRRRSSPVRRERKRSHSRSPRHRTKSRSPSPAPEKKEKTPELPEPSVKVKEPSVQEATSTSDILKVPKPEPIPEPKEPSPEKNSKKEKEKEKTRPRSRSRSKSRSRTRSRSPSHTRPRRRHRSRSRSYSPRRRPSPRRRPSPRRRTPPRRMPPPPRHRRSRSPVRRRRRSSASLSGSSSSSSSSRSRSPPKKPPKRTSSPPRKTRRLSPSASPPRRRHRPSPPATPPPKTRHSPTPQQSNRTRKSRVSVSPGRTSGKVTKHKGTEKRESPSPAPKPRKVELSESEEDKGGKMAAADSVQQRRQYRRQNQQSSSDSGSSSSSEDERPKRSHVKNGEVGRRRRHSPSRSASPSPRKRQKETSPRGRRRRSPSPPPTRRRRSPSPAPPPRRRRTPTPPPRRRTPSPPPRRRSPSPRRYSPPIQRRYSPSPPPKRRTASPPPPPKRRASPSPPPKRRVSHSPPPKQRSSPVTKRRSPSLSSKHRKGSSPSRSTREARSPQPNKRHSPSPRPRAPQTSSSPPPVRRGASSSPQRRQSPSPSTRPIRRVSRTPEPKKIKKAASPSPQSVRRVSSSRSVSGSPEPAAKKPPAPPSPVQSQSPSTNWSPAVPVKKAKSPTPSPSPPRNSDQEGGGKKKKKKKDKKHKKDKKHKKHKKHKKEKAVAAAAAAAVTPAAIAAATTTLAQEEPVAAPEPKKETESEAEDNLDDLEKHLREKALRSMRKAQVSPQS
modifications: phosphorylated
B6: SCAF11 (protein, UniProt Q99590 1-1463)
chain: MKKKTVCTLNMGDKKYEDMEGEENGDNTISTGLLYSEADRCPICLNCLLEKEVGFPESCNHVFCMTCILKWAETLASCPIDRKPFQAVFKFSALEGYVKVQVKKQLRETKDKKNENSFEKQVSCHENSKSCIRRKAIVREDLLSAKVCDLKWIHRNSLYSETGGKKNAAIKINKPQRSNWSTNQCFRNFFSNMFSSVSHSGESSFTYRAYCTEFIEASEISALIRQKRHELELSWFPDTLPGIGRIGFIPWNVETEVLPLISSVLPRTIFPTSTISFEHFGTSCKGYALAHTQEGEEKKQTSGTSNTRGSRRKPAMTTPTRRSTRNTRAETASQSQRSPISDNSGCDAPGNSNPSLSVPSSAESEKQTRQAPKRKSVRRGRKPPLLKKKLRSSVAAPEKSSSNDSVDEETAESDTSPVLEKEHQPDVDSSNICTVQTHVENQSANCLKSCNEQIEESEKHTANYDTEERVGSSSSESCAQDLPVLVGEEGEVKKLENTGIEANVLCLESEISENILEKGGDPLEKQDQISGLSQSEVKTDVCTVHLPNDFPTCLTSESKVYQPVSCPLSDLSENVESVVNEEKITESSLVEITEHKDFTLKTEELIESPKLESSEGEIIQTVDRQSVKSPEVQLLGHVETEDVEIIATCDTFGNEDFNNIQDSENNLLKNNLLNTKLEKSLEEKNESLTEHPRSTELPKTHIEQIQKHFSEDNNEMIPMECDSFCSDQNESEVEPSVNADLKQMNENSVTHCSENNMPSSDLADEKVETVSQPSESPKDTIDKTKKPRTRRSRFHSPSTTWSPNKDTPQEKKRPQSPSPRRETGKESRKSQSPSPKNESARGRKKSRSQSPKKDIARERRQSQSRSPKRDTTRESRRSESLSPRRETSRENKRSQPRVKDSSPGEKSRSQSRERESDRDGQRRERERRTRKWSRSRSHSRSPSRCRTKSKSSSFGRIDRDSYSPRWKGRWANDGWRCPRGNDRYRKNDPEKQNENTRKEKNDIHLDADDPNSADKHRNDCPNWITEKINSGPDPRTRNPEKLKESHWEENRNENSGNSWNKNFGSGWVSNRGRGRGNRGRGTYRSSFAYKDQNENRWQNRKPLSGNSNSSGSESFKFVEQQSYKRKSEQEFSFDTPADRSGWTSASSWAVRKTLPADVQNYYSRRGRNSSGPQSGWMKQEEETSGQDSSLKDQTNQQVDGSQLPINMMQPQMNVMQQQMNAQHQPMNIFPYPVGVHAPLMNIQRNPFNIHPQLPLHLHTGVPLMQVATPTSVSQGLPPPPPPPPPSQQVNYIASQPDGKQLQGIPSSSHVSNNMSTPVLPAPTAAPGNTGMVQGPSSGNTSSSSHSKASNAAVKLAESKVSVAVEASADSSKTDKKLQIQEKAAQEVKLAIKPFYQNKDITKEEYKEIVRKAVDKVCHSKSGEVNSTKVANLVKAYVDKYKYSRKGSQKKTLEEPVSTEKNIG
B7: phosphorylated SRSF4, Q08170 1-494 (protein)
chain: MPRVYIGRLSYQARERDVERFFKGYGKILEVDLKNGYGFVEFDDLRDADDAVYELNGKDLCGERVIVEHARGPRRDGSYGSGRSGYGYRRSGRDKYGPPTRTEYRLIVENLSSRCSWQDLKDYMRQAGEVTYADAHKGRKNEGVIEFVSYSDMKRALEKLDGTEVNGRKIRLVEDKPGSRRRRSYSRSRSHSRSRSRSRHSRKSRSRSGSSKSSHSKSRSRSRSGSRSRSKSRSRSQSRSRSKKEKSRSPSKEKSRSRSHSAGKSRSKSKDQAEEKIQNNDNVGKPKSRSPSRHKSKSKSRSRSQERRVEEEKRGSVSRGRSQEKSLRQSRSRSRSKGGSRSRSRSRSKSKDKRKGRKRSREESRSRSRSRSKSERSRKRGSKRDSKAGSSKKKKKEDTDRSQSRSPSRSVSKEREHAKSESSQREGRGESENAGTNQETRSRSRSNSKSKPNLPSESRSRSKSASKTRSRSKSRSRSASRSPSRSRSRSHSRS
modifications: here or on the partner: phosphorylated

molecular target: T1, SRSF7-GFP fusion product (Serine/arginine-rich splicing factor 7, GFP-tagged at the C-terminus, from a BAC) (human); assay: affinity purification with mass spectrometry; GFP-Trap agarose beads on lysates of BAC-SRSF7-GFP MDA-MB-231 cells treated with 0.1% DMSO or 1 µM T-025 for 24 h; EBC buffer, benzonase, 300 mM NaCl, 2 h at 4 °C; MDA-MB-231-GFP cells as negative control; on-bead trypsin digest, label-free quantification, phospho (STY) as variable modification, four biological replicates; settings: not given

| binding | Binder |
| --- | --- |
| binds | B1 |
| binds | B2 |
| binds | B3 |
| binds | B4 |
| binds | B5 |
| binds | B6 |

Molecular target: T2, SRSF7-GFP fusion product …
Assay: as above
Settings: remark: other sources report otherwise

| binding | Binder |
| --- | --- |
| binds | B7 |

No constants are given. Whether binding was seen depends on the method and setting. Binding seen in cells or lysates may run through a third protein. Here binding means that the protein was enriched with, or labelled near, the bait; the list need not be complete. Sequences can lack the tags named with a protein.
